Laboratory results from US20160264636A1, “PEPTIDE INHIBITORS OF TEAD/YAP-TAZ INTERACTION” (UNIVERSITE PIERRE ET MARIE CURIE (PARIS 6), priority 2013, published 2016).
No constants are given. Whether binding was seen depends on the method and setting. Some binding calls cover weakened binding; strength is not graded here.

Amino acid sequences for entries named in this document (tags omitted).
UniProt Q9GZV5: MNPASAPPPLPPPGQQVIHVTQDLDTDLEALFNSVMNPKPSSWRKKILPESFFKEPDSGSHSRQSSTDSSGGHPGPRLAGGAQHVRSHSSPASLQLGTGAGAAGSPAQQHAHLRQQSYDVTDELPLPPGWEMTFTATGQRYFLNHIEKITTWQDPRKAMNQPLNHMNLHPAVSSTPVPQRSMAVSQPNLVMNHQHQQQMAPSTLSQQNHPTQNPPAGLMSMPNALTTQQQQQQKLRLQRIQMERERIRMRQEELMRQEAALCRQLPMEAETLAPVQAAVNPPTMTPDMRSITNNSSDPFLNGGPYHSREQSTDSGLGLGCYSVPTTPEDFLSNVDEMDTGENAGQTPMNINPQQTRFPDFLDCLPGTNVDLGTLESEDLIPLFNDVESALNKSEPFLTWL
UniProt Q15562: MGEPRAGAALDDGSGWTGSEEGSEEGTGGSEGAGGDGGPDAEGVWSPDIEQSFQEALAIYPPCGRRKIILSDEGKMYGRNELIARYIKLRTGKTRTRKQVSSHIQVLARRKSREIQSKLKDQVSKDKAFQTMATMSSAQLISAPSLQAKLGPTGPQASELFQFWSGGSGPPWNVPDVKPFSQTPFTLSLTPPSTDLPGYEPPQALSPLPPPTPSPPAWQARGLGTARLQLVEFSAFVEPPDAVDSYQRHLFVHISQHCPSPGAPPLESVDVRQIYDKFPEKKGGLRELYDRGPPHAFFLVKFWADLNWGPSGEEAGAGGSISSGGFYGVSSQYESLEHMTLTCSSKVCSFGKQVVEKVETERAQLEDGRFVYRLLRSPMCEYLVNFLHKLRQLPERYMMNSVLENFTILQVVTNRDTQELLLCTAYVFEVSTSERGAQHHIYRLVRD
UniProt P46937: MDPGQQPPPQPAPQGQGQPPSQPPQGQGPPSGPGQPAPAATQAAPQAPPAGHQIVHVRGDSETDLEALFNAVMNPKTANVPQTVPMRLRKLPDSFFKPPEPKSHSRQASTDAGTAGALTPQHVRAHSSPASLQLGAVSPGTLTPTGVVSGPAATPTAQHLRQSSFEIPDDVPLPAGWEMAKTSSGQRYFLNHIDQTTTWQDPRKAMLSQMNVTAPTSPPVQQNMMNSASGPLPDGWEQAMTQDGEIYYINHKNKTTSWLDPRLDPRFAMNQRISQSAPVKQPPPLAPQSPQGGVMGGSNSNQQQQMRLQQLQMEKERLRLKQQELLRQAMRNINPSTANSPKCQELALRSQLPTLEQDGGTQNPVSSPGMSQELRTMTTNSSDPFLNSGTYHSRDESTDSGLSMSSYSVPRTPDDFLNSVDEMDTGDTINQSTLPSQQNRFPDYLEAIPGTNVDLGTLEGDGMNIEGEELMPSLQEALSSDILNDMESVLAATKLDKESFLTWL

Tests used:
peptide TAZ (…) (human) = experiment: cellulose-bound dodecapeptide spot array probed with TAZ-GST, ECL detection
peptide YAP (…) (human) = molecular target: T1, peptide YAP (…) (human); experiment: cellulose-bound dodecapeptide spot array probed with TEAD-GST, ECL detection
T1 sequence (peptide): KTANVPQTVPMRLRKLPD

peptide TEAD (…) (human) = molecular target: T2, peptide TEAD (…) (human); experiment: cellulose-bound dodecapeptide spot array probed with YAP-GST, ECL detection
T2 sequence (peptide): RLQLVEFSAFVEPPDAVD

## TAZ-GST protein (from UniProt Q9GZV5 1-400)
Peptide TAZ (…) (human)
  binding: binds

## TEAD-GST protein (from UniProt Q15562 1-447)
Peptide YAP (…) (human)
  binding: binds

## YAP-GST protein (from UniProt P46937 1-504)
Peptide TEAD (…) (human)
  binding: binds
